According to the supplement of paper PMC12889115:
This is one part of the list. These are raw signals, not scaled to a control.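 In the initial screen, polymyxin B was used at a concentration that permeabilizes Salmonella's outer membrane but not its inner membrane. Maximum growth was set by DMSO wells with or without polymyxin B. Since plates varied, data were ranked per plate, and compounds giving the lowest OD600 advanced as hits.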

Test system: Salmonella enterica serovar Typhimurium SL1344
Assay: bacterial growth OD600 after 18 h with compound and polymyxin B; higher = more bacterial growth (less inhibition)
Conditions: 50 µM, Mueller-Hinton broth

SMILES | bacterial growth OD600 (polymyxin B 0.75 µg/mL) | bacterial growth OD600 (polymyxin B 1 µg/mL)
COC(=O)C(CCSC)NC(=O)CCc1nnc(-c2ccc(C)s2)o1 (stereo unspecified) | 0.816 | 
CCOC(=O)C1(CCOC)CCN(Cc2cc(C)ccc2-n2cccn2)CC1 |  | 0.806
CC(O)(COc1ccccc1)c1ccc2c(c1)CN(Cc1ccsc1)CCO2 (stereo unspecified) | 0.69 | 
COc1cc(CN2CCOc3ccc(C(O)Cc4ccccc4)cc3C2)cc2c1OCO2 (stereo unspecified) | 0.694 | 
Cc1ccccc1CCC1CCCN(C(=O)c2snnc2C)C1 (stereo unspecified) | 0.72 | 
O=C(NC1CC(=O)N(Cc2cccc3ccccc23)C1)c1cnccn1 (stereo unspecified) |  | 0.959
Cc1ncsc1C(=O)N1CCC(C2CCN(c3ncccn3)CC2)C1 (stereo unspecified) | 0.947 | 
CC1(C2CCN(C(=O)c3cc4ccccc4oc3=O)CC2)NC(=O)N(Cc2ccsc2)C1=O (stereo unspecified) | 0.815 | 
CO[C@H]1[C@H](NC(=O)Cc2cccs2)c2ccccc2C12CCN(Cc1cc(C)c(O)c(C)c1)CC2 | 0.832 | 
CCC(=O)N1CCCC(C(=O)c2ccc(-c3ccccc3)cc2)C1 (stereo unspecified) |  | 0.471
Cc1cc(CN(C)C(=O)CC2(c3ccccc3)CC(=O)N(CCCOc3cccnc3)C2=O)on1 (stereo unspecified) | 0.852 | 
COc1ccc(/C=C/C(=O)NC2CCCN(C3Cc4ccccc4C3)C2)cc1 (stereo unspecified) | 0.709 | 
Cc1ccc(C(=O)N2CCC(n3nccc3NC(=O)C3CCOC3)CC2)cc1C (stereo unspecified) |  | 0.905
c1ccc(OCc2noc(CN3CCN(c4ccccn4)CC3)n2)cc1 |  | 0.902
O=C(c1cc(COc2cccc(C(F)(F)F)c2)on1)N1CCCCO1 | 0.006 | 
COc1ccccc1CCNC(=O)Cc1ccc(N2CCC(NCCn3cncn3)CC2)cc1 | 0.782 | 

A second format for two compounds above.
SMILES	bacterial growth OD600 (polymyxin B 0.75 µg/mL)	bacterial growth OD600 (polymyxin B 1 µg/mL)
O=C(NC1CC(=O)N(Cc2cccc3ccccc23)C1)c1cnccn1 (stereo unspecified)		0.959
Cc1ncsc1C(=O)N1CCC(C2CCN(c3ncccn3)CC2)C1 (stereo unspecified)	0.947	

Remaining list, next part:

SMILES | bacterial growth OD600 (polymyxin B 0.75 µg/mL) | bacterial growth OD600 (polymyxin B 1 µg/mL)
COc1cc(C(=O)NCCc2cccc(F)c2)ccc1OC1CCN(C(C)=O)CC1 |  | 1.33
CCC1CN(CCNC(=O)CC(C)C)Cc2cc(OC)ccc2O1 (stereo unspecified) | 0.743 | 
O[C@@H]1CN(Cc2cccc(Cn3cccn3)c2)CC[C@H]1N1CCN(c2ccccn2)CC1 |  | 1.25
COc1cccc(CCC(=O)N(C)C2CCCN(Cc3ccccc3F)C2)c1 (stereo unspecified) |  | 0.871
CCCc1cc(CNC(=O)c2ccc(N3CCCC(CNC(C)=O)C3)nc2)on1 (stereo unspecified) |  | 1.22
CCCCC1CN(CCC(=O)NCCOc2cccnc2)Cc2ccccc2O1 (stereo unspecified) | 0.647 | 
COc1ccc2c(C)nc(N3CCCC(C(=O)NCc4ccccc4)C3)nc2c1 (stereo unspecified) | 0.361 | 
O=C(Cc1ccc2c(c1)OCO2)NCc1cccnc1N1CCCCCCC1 | 0.51 | 
Cc1ccccc1CN1CCOc2ccc(C(C)(O)CN(C)C)cc2C1 (stereo unspecified) | 0.773 | 
CC(C)N1CCC(N2CCC(C3CCN(c4ncccn4)CC3)C2)CC1 (stereo unspecified) | 0.786 | 
COc1ccc(/C=C/CN2CCC3(CC2)c2ccccc2[C@@H](NC(=O)COc2ccccc2)[C@@H]3O)cc1 | 0.799 | 
Cc1noc(C)c1CC(=O)NC1CC(=O)N(CCCc2ccccc2)C1 (stereo unspecified) |  | 1.07
CCOC(=O)C1(Cc2cccc(F)c2)CCN(Cc2cn(CC)nc2C)CC1 |  | 0.796
CCCN1CCCC1C(=O)Nc1ccc(-c2cscn2)cc1 (stereo unspecified) | 0.833 | 
O=C(Nc1cccc(-c2ccc(F)cc2)c1)C1CCCN1Cc1cccnc1 (stereo unspecified) |  | 0.009
